Values from PubChem BioAssay AID652243 (Drosophila RNAi Screening Center, 2013).
Screen: 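Fly genes required for human androgen receptor driven transcription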 (primary screen). Cell system: Drosophila S2R+ cells. Reagent: long dsRNA against Drosophila genes. Time to read-out: 72 h (48 h, then 24 h hormone). Challenge: synthetic androgen R1881 at 10 nM for 24 h. Read-out: 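Per-well raw luminescence of the androgen-driven firefly reporter and of the Renilla control, two replicates each, without normalisation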. Scale: firefly reporter light: higher = more light from androgen-responsive reporter; Renilla control light: higher = more constitutive control signal (cell number, transfection). Rule for the call: 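Hit when the log firefly-to-Renilla ratio dropped or increased by a fixed fold versus the mean of GFP or LacZ controls across duplicate plates; lowering cut given as 1.5 and as 3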. Meaning of the calls: active = hit: reporter lowered or raised; inactive = no hit.
In all, the deposit lists about 24,000 reagents; shown is an unselected part of those with a known target gene and a result. Over the whole deposit, 246 (1%) got an active call. 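Plates not normalised; calls are printed but the firefly/Renilla ratio behind them is not deposited; fold cut for lowering reported inconsistently.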 Raw values vary from plate to plate and are shown uncorrected. A plus sign joins genes that one reagent is predicted to hit. Reagent sequences are not shown. Not given: the amount of reagent.

| gene knocked down | DRSC id | firefly reporter light, replicate 1 | firefly reporter light, replicate 2 | Renilla control light, replicate 1 | Renilla control light, replicate 2 | call |
| --- | --- | --- | --- | --- | --- | --- |
| CG13428 (GeneID 37317) | DRSC06390 | 1.25e5 | 1.21e5 | 2.21e6 | 1.68e6 | inactive |
| CG12682 (GeneID 31415) | DRSC17873 | 2.23e5 | 2.66e5 | 1.89e6 | 1.99e6 | inactive |
| Or85c (GeneID 41008) | DRSC16766 | 75150 | 80710 | 1.19e6 | 1.22e6 | inactive |
| CG3308 (GeneID 42527) | DRSC15474 | 44426 | 41151 | 4.27e5 | 4.88e5 | inactive |
| AP-1sigma (GeneID 42835) | DRSC15899 | 1.00e5 | 1.47e5 | 1.31e6 | 1.31e6 | inactive |
| yellow-c + CIAPIN1 | DRSC01898 | 1.77e5 | 1.46e5 | 1.85e6 | 1.94e6 | inactive |
| CG14851 (GeneID 41763) | DRSC14975 | 1.45e5 | 1.98e5 | 2.00e6 | 1.88e6 | inactive |
| CG14851 (GeneID 41763) | DRSC21500 | 9.30e5 | 8.28e5 | 1.31e6 | 1.94e6 | inactive |
| CG14851 (GeneID 41763) | DRSC27841 | 3.88e5 | 4.96e5 | 3.93e5 | 7.63e5 | inactive |
| CG10853 (GeneID 38465) | DRSC08164 | 1.57e5 | 1.67e5 | 2.20e6 | 3.16e6 | inactive |
| CG10853 (GeneID 38465) | DRSC23600 | 6.27e5 | 5.10e5 | 7.09e5 | 6.87e5 | inactive |
| Parg (GeneID 31329) | DRSC18696 | 1.49e5 | 1.94e5 | 1.06e6 | 6.89e5 | inactive |
| CG3841 (GeneID 34278) | DRSC02730 | 2.13e5 | 1.30e5 | 1.60e6 | 1.41e6 | inactive |
| Try29F (GeneID 34226) | DRSC03466 | 2.41e5 | 1.85e5 | 1.75e6 | 1.40e6 | inactive |
| Try29F (GeneID 34226) | DRSC25721 | 3.29e5 | 2.54e5 | 7.33e5 | 5.40e5 | inactive |
| CG11436 (GeneID 31386) | DRSC17783 | 1.15e5 | 62769 | 6.85e5 | 4.93e5 | inactive |
| CG8701 (GeneID 35812) | DRSC07237 | 9.41e5 | 9.80e5 | 1.90e6 | 2.00e6 | inactive |
| CG5412 (GeneID 42434) | DRSC15796 | 1.02e5 | 92701 | 6.50e5 | 7.18e5 | inactive |
| SLIRP2 (GeneID 41021) | DRSC16363 | 1.27e5 | 1.32e5 | 2.46e6 | 2.67e6 | inactive |
| SLIRP2 (GeneID 41021) | DRSC26237 | 3.87e5 | 4.38e5 | 6.97e5 | 7.26e5 | inactive |
| CG7264 (GeneID 39339) | DRSC10793 | 1.26e5 | 88998 | 1.69e6 | 1.18e6 | inactive |
| CG7264 (GeneID 39339) | DRSC26046 | 2.02e5 | 2.53e5 | 8.56e5 | 7.90e5 | inactive |
| Cmtr1 (GeneID 31355) | DRSC18400 | 1.65e5 | 1.70e5 | 2.02e6 | 1.89e6 | inactive |
| Cmtr1 (GeneID 31355) | DRSC27812 | 3.40e5 | 2.62e5 | 5.06e5 | 7.08e5 | inactive |
| Oseg1 (GeneID 38957) | DRSC10776 | 1.10e6 | 8.93e5 | 8.00e5 | 7.51e5 | inactive |
| Vps60 (GeneID 39964) | DRSC10610 | 2.21e5 | 2.27e5 | 2.30e6 | 2.43e6 | inactive |
| Dll (GeneID 37973) | DRSC04610 | 3.26e5 | 3.23e5 | 2.20e6 | 2.24e6 | inactive |
| Dll (GeneID 37973) | DRSC27225 | 2.34e5 | 2.64e5 | 5.44e5 | 5.40e5 | inactive |
| emc (GeneID 38091) | DRSC23238 | 6.91e5 | 6.86e5 | 8.88e5 | 1.08e6 | inactive |
| emc (GeneID 38091) | DRSC28439 | 6.53e5 | 8.32e5 | 6.68e5 | 1.24e6 | inactive |
| CG15362 (GeneID 33371) | DRSC00392 | 1.18e5 | 1.31e5 | 9.97e5 | 1.06e6 | inactive |
| Idua (GeneID 34544) | DRSC02941 | 1.14e6 | 6.38e5 | 1.77e6 | 1.35e6 | inactive |
| CG13171 (GeneID 36323) | DRSC06299 | 2.77e5 | 2.46e5 | 2.03e6 | 2.14e6 | inactive |
| Np (GeneID 35904) | DRSC06089 | 3.61e5 | 2.02e5 | 1.75e6 | 1.27e6 | inactive |
| Np (GeneID 35904) | DRSC24989 | 1.19e6 | 1.34e6 | 1.29e6 | 1.26e6 | inactive |
| CG6553 (GeneID 36537) | DRSC07002 | 72452 | 59244 | 1.39e6 | 1.39e6 | inactive |
| CG5112 (GeneID 43083) | DRSC15718 | 1.11e5 | 67387 | 5.26e5 | 6.07e5 | inactive |
| CG17821 (GeneID 37159) | DRSC06696 | 1.00e5 | 1.24e5 | 1.13e6 | 1.09e6 | inactive |
| Torsin (GeneID 31399) | DRSC18570 | 3.59e5 | 2.87e5 | 2.17e6 | 2.73e6 | inactive |
| gNacalpha (GeneID 33279) | DRSC00654 | 77819 | 63624 | 6.64e5 | 7.01e5 | inactive |
| gNacalpha (GeneID 33279) | DRSC29840 | 3.67e5 | 3.12e5 | 1.10e6 | 1.15e6 | inactive |
| scpr-C + scpr-B + scpr-A | DRSC26639 | 4.70e5 | 4.96e5 | 8.03e5 | 7.95e5 | inactive |
| Obp99b (GeneID 43497) | DRSC16264 | 61464 | 1.13e5 | 1.60e6 | 2.38e6 | inactive |
| Obp99b (GeneID 43497) | DRSC27754 | 2.45e5 | 2.42e5 | 4.77e5 | 6.82e5 | inactive |
| CG1309 (GeneID 38519) | DRSC08302 | 1.28e6 | 7.29e5 | 1.66e6 | 1.04e6 | inactive |
| CG4645 (GeneID 32244) | DRSC19907 | 1.20e5 | 1.38e5 | 6.11e5 | 7.25e5 | inactive |
| CG4645 (GeneID 32244) | DRSC24802 | 6.51e5 | 1.12e6 | 3.87e5 | 6.55e5 | inactive |
| LpR1 (GeneID 2768687) | DRSC15665 | 81113 | 1.01e5 | 8.10e5 | 8.07e5 | inactive |
| LpR1 (GeneID 2768687) | DRSC15669 | 1.85e5 | 1.87e5 | 2.13e6 | 2.22e6 | inactive |
| LpR1 (GeneID 2768687) | DRSC15670 | 1.65e5 | 2.19e5 | 1.66e6 | 1.94e6 | inactive |
| LpR1 (GeneID 2768687) | DRSC27848 | 1.11e6 | 7.57e5 | 4.45e6 | 2.08e6 | inactive |
| wun2 (GeneID 53558) | DRSC07566 | 3.10e5 | 2.08e5 | 1.94e6 | 1.16e6 | inactive |
| wun2 (GeneID 53558) | DRSC36974 | – | – | – | – | inactive |
| wun2 (GeneID 53558) | DRSC36975 | – | – | – | – | inactive |
| CG4546 (GeneID 41922) | DRSC15593 | 1.13e5 | 1.45e5 | 1.63e6 | 2.33e6 | inactive |
| CG4546 (GeneID 41922) | DRSC29584 | 6.11e5 | 7.97e5 | 1.74e6 | 1.74e6 | inactive |
| atms (GeneID 40593) | DRSC12310 | 30045 | 46656 | 3.62e5 | 2.85e5 | inactive |
| atms (GeneID 40593) | DRSC27502 | 2.39e5 | 2.31e5 | 3.12e5 | 5.64e5 | inactive |
